Assay [1] addresses human β-tubulin (TUBB-5) in the HEK293T microtubule lattice (human (endogenous in HEK293T)) (UniProt P07437). Kind of assay: cryo-EM structure; 10 μM TTLL11 (E441G) and 10 μM dsMTs from HEK293T tubulin in EM buffer (40 mM tris-HCl pH 7.0, 1 mM TCEP, 1 mM MgCl2, 5% glycerol); 14-protofilament MTs; both purified.
Assay [2] deals with human α-tubulin (TUBA1B) in the HEK293T microtubule lattice (human (endogenous in HEK293T)) (UniProt P68363). Described as above.

The chains behind the UniProt entries cited, without tags or fusion partners. Where a name states a change or a piece, a line headed by the entry shows the natural chain unless it says otherwise.
UniProt P07437: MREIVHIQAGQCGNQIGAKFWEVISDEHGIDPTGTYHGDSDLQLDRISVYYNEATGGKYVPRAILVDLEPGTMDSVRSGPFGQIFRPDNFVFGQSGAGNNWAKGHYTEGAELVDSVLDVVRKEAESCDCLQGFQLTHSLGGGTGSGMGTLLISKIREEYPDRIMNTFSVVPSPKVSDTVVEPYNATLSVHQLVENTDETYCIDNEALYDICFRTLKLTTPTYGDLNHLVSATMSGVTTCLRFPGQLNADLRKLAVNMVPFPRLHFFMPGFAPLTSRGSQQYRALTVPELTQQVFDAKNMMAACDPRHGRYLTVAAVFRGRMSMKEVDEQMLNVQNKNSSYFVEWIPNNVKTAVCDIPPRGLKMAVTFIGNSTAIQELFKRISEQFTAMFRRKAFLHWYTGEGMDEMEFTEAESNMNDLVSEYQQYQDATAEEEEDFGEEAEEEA
UniProt P68363: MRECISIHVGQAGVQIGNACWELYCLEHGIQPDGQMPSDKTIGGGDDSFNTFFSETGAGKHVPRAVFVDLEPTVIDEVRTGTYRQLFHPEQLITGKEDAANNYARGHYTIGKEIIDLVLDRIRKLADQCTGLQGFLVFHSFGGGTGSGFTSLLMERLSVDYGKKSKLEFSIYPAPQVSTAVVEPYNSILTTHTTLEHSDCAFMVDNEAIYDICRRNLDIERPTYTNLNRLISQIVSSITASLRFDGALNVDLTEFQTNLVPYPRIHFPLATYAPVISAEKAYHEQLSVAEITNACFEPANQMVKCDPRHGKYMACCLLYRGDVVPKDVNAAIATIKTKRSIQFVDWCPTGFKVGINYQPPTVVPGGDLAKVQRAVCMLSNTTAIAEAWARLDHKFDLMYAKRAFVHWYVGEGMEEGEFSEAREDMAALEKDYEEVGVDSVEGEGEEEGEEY
UniProt Q8NHH1: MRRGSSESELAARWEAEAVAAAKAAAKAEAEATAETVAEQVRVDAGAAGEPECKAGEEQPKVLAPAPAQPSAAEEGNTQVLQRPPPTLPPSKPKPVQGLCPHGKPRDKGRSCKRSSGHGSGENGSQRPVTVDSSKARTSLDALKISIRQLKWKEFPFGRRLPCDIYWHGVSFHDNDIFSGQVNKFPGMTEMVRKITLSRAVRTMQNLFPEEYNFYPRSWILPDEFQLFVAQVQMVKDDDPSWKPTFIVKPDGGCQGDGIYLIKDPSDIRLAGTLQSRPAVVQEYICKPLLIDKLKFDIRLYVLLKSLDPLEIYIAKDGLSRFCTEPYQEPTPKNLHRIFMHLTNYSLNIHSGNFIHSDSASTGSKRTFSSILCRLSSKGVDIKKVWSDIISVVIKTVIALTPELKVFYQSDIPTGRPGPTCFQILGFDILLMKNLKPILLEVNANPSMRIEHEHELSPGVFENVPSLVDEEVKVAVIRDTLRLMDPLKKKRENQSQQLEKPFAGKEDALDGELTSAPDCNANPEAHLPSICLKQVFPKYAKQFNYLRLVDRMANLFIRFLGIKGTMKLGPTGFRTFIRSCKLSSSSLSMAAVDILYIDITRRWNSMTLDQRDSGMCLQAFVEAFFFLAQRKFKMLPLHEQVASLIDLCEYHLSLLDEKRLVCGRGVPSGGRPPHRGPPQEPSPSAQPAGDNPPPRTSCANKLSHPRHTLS

No constants are given. Whether binding was seen depends on the method and setting. A result given as binding can be weak or reduced; the word gives no strength.

Take “hTTLL11 (residues 128 to 657), TTLL11 (E441G) of the cryo-EM sample (from UniProt Q8NHH1) (enzyme)”: the binding result in assay [1] and in assay [2] was “binds” throughout.

Values taken from paper PMC12366701.
